No constants are given. Whether binding was seen depends on the method and setting. Binding seen in cells or lysates may run through a third protein. Sequences can lack the tags named with a protein.
Key:
[1] = target: FLAG-tagged NDRG2 C-terminal truncation; assay: co-IP
[2] = target: FLAG-tagged NDRG2 N-terminal truncation; assay: co-IP

- binding [1]: no binding
- binding [2]: no binding
B1: HA-tagged E3 ligase FBX011 (protein, UniProt Q86XK2 1-927)
chain: MNSVRAANRRPRRVSRPRPVQQQQQQPPQQPPPQPPQQQPPQQQPPPPPQQQQQQQPPPPPPPPPPLPQERNNVGERDDDVPADMVAEESGPGAQNSPYQLRRKTLLPKRTACPTKNSMEGASTSTTENFGHRAKRARVSGKSQDLSAAPAEQYLQEKLPDEVVLKIFSYLLEQDLCRAACVCKRFSELANDPILWKRLYMEVFEYTRPMMHPEPGKFYQINPEEYEHPNPWKESFQQLYKGAHVKPGFAEHFYSNPARYKGRENMLYYDTIEDALGGVQEAHFDGLIFVHSGIYTDEWIYIESPITMIGAAPGKVADKVIIENTRDSTFVFMEGSEDAYVGYMTIRFNPDDKSAQHHNAHHCLEITVNCSPIIDHCIIRSTCTVGSAVCVSGQGACPTIKHCNISDCENVGLYITDHAQGIYEDNEISNNALAGIWVKNHGNPIIRRNHIHHGRDVGVFTFDHGMGYFESCNIHRNRIAGFEVKAYANPTVVRCEIHHGQTGGIYVHEKGRGQFIENKIYANNFAGVWITSNSDPTIRGNSIFNGNQGGVYIFGDGRGLIEGNDIYGNALAGIQIRTNSCPIVRHNKIHDGQHGGIYVHEKGQGVIEENEVYSNTLAGVWVTTGSTPVLRRNRIHSGKQVGVYFYDNGHGVLEDNDIYNHMYSGVQIRTGSNPKIRRNKIWGGQNGGILVYNSGLGCIEDNEIFDNAMAGVWIKTDSNPTLRRNKIHDGRDGGICIFNGGRGLLEENDIFRNAQAGVLISTNSHPILRKNRIFDGFAAGIEITNHATATLEGNQIFNNRFGGLFLASGVNVTMKDNKIMNNQDAIEKAVSRGQCLYKISSYTSYPMHDFYRCHTCNTTDRNAICVNCIKKCHQGHDVEFIRHDRFFCDCGAGTLSNPCTLAGEPTHDTDTLYDSAPPIESNTLQHN
